Experimental data from paper PMC11053944, “FRET Assays for the Identification of C. albicans HSP90-Sba1 and Human HSP90α-p23 Binding Inhibitors” (Pharmaceuticals, 2024).
No constants are given. Whether binding was seen depends on the method and setting.

Protein sequences, listed by entry. Tags and fused reporters are not part of them.
UniProt P46598: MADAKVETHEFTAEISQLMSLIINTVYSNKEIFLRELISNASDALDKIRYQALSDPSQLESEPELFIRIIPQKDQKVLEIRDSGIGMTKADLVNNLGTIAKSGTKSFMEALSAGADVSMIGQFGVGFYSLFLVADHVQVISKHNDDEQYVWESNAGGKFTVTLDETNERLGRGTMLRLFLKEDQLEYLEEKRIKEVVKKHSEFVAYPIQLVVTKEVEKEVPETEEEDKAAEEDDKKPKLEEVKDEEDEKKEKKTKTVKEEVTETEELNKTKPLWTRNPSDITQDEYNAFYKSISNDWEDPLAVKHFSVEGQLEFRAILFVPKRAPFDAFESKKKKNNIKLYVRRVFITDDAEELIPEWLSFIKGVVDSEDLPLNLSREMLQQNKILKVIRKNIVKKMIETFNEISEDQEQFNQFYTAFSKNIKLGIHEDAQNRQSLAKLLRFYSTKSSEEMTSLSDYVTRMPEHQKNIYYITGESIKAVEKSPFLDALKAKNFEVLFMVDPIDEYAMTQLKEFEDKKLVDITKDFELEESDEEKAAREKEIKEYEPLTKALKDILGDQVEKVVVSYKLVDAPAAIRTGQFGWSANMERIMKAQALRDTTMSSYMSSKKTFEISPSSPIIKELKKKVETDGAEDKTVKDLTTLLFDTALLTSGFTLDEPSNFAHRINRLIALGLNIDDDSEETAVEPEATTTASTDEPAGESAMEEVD
UniProt A0A1D8PQ94: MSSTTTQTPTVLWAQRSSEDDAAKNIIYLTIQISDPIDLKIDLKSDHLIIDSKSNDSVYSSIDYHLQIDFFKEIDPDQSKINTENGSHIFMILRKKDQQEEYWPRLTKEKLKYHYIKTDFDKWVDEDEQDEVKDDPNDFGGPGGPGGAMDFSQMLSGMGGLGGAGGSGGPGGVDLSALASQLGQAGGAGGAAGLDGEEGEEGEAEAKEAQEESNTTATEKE

Key:
[1] = target: C. albicans HSP90-mNeonGreen (C. albicans) (UniProt P46598); experiment: FRET or BRET; as the specificity experiment (donor 1 µM, acceptor 0-2250 nM) but ATP omitted from the buffer; both purified
[2] = target: C. albicans HSP90-mNeonGreen (C. albicans) (UniProt P46598); experiment: FRET or BRET; screening conditions, non-binding control: 1 µM donor, 2 µM acceptor, reaction buffer, 1% DMSO, no ATP, 15 min at 30 °C (C. albicans) or 37 °C (human); both purified

binding [2]: no binding (condition: no ATP)
Substance: C. albicans Sba1-mScarlet-I (from UniProt A0A1D8PQ94 1-221)
binding [1]: no binding (condition: ATP omitted from the buffer)
